For some of these results: A negative result means that nothing was seen under these conditions. For some of these results: At least one verdict rests on a figure or table, not on a statement of the authors. For some of these results: The comparison behind a weaker result is the experiment's own reference, which may not be listed here. For some of these results: For at least one entry, the source does not settle the construct or the ends of the probe.

Protein sequences, listed by entry. Tags and fused reporters are not part of them. Residues count along the entry.
UniProt Q16649, 65-161 N83A: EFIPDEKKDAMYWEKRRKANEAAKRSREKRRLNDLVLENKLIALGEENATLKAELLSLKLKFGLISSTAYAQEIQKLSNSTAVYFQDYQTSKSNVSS
UniProt Q16649, 65-161 R80A: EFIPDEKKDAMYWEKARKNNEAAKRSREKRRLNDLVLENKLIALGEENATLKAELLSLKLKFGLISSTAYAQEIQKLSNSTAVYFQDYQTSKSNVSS
UniProt Q16649, 65-161 R91A: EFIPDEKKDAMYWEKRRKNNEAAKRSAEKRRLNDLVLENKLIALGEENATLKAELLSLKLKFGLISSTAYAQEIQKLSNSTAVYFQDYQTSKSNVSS
UniProt Q16649, 65-161 R91C: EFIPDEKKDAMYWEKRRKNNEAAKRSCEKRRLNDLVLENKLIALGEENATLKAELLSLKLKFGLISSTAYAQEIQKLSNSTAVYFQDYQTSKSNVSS
UniProt Q16649, 65-161 R91H: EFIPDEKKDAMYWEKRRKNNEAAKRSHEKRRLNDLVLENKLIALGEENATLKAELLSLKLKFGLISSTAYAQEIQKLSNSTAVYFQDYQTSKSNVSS
UniProt Q16649, 65-161: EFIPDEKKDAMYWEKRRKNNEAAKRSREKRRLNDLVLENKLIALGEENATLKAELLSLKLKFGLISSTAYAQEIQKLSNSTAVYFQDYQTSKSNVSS
UniProt P35638, 88-162: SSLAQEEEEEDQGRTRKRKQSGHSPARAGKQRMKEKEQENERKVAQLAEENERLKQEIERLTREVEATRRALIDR

The target in data set [1] is NFIL3 N83A (human) (UniProt Q16649). As to the kind of experiment: ITC. Particulars: negligible or very weak (NB or WB in figure); ITC: 20 mM Tris pH 7.5, 150 mM NaCl, 25 °C; recombinant protein; residues 65-161; protein details: His6-SUMO removed by TEV.
In data set [2] the target is NFIL3 R80A (human) (UniProt Q16649). As to the kind of experiment: ITC. Particulars: negligible or very weak (NB or WB in figure); ITC: 20 mM Tris pH 7.5, 150 mM NaCl, 25 °C; recombinant protein; residues 65-161; protein details: His6-SUMO removed by TEV.
The target in data set [3] is NFIL3 R91A (human) (UniProt Q16649). The experiment in a line: ITC. To be noted: negligible or very weak (NB or WB in figure); ITC: 20 mM Tris pH 7.5, 150 mM NaCl, 25 °C; recombinant protein; residues 65-161; protein details: His6-SUMO removed by TEV.
The target in data set [4] is NFIL3 R91C (human) (UniProt Q16649). As to the kind of experiment: ITC. To be noted: NB, no Kd given; ITC: 20 mM Tris pH 7.5, 150 mM NaCl, 25 °C; recombinant protein; residues 65-161; protein details: His6-SUMO removed by TEV.
The target of data set [5] is NFIL3 R91H (human) (UniProt Q16649). As to the kind of experiment: ITC. Particulars: NB, no Kd given; ITC: 20 mM Tris pH 7.5, 150 mM NaCl, 25 °C; recombinant protein; residues 65-161; protein details: His6-SUMO removed by TEV.
Data set [6] deals with C/EBPζ bZIP (human) (UniProt P35638). The experiment in a line: EMSA. To be noted: 6-48 uM protein; EMSA: same buffer, 4 °C, 6% native gel in 0.5x TBE; recombinant protein; residues 88-162; protein details: His6-SUMO removed by TEV; label: 5' FAM.
Data set [7] has as its target NFIL3 bZIP (long) (human) (UniProt Q16649). As to the kind of experiment: EMSA. To be noted: positive control, 6-24 uM protein, construct span not stated; EMSA: same buffer, 4 °C, 6% native gel in 0.5x TBE; recombinant protein; residues 65-161; protein details: His6-SUMO removed by TEV; label: 5' FAM.

As to CATTACGTAATG (double strand), the binding result in data set [1] is recorded as “binds more weakly”; in data set [2], “binds more weakly”; in data set [3], “binds more weakly”; in data set [4], “no binding”; in data set [5], “no binding”.

Turning to “CATTACGTAATG (double strand) [FAM-TTACGTAA]”, the binding result in data set [6] is given as “no binding”; in data set [7], “binds”.

These data come from publication PMC10941009, “Structural basis for specific DNA sequence recognition by the transcription factor NFIL3” (The Journal of Biological Chemistry, 2024).
